Measurements published in US20160311788A1, “Antifouling Compounds And Use Thereof” (National University of Singapore, priority 2008, published 2016).
Some entries share one result that the patent states for a list of compounds.

Tested on: Stage II nauplii of Balanus amphitrite
Assay: barnacle toxicity assay
Type: in vivo
Conditions: Table 3(a), concentration that caused 50% mortality, 22 to 24 hours
Experimental: Pure compounds were suspended in DMSO and sonicated to obtain a stock solution of 50 mg ml^−1 in DMSO. This stock solution is stored at −20° C. in 4 ml amber screw cap vials. For the bioassays, a small volume of stock solution was added to 1 μm filtered seawater in a glass scintillation vial. This suspension was then sonicated around 10 minutes. Serial dilutions were generated to the required range of concentrations. Serial dilution of the equivalent amounts of DMSO in seawater was used as the control.
The barnacle bioassay method used follows from the method first introduced by Rittschof et al. (1992), and subsequently by other authors (Willemsen et al., 1998). This method is now standard practice for many antifouling screening of novel compounds.
Toxicity assays were modified from Rittschof et al. (1992). Stage II naupliar larvae used in tests were obtained from Balanus amphitrite adults collected from inter-tidal rock walls at Kranji mangrove, Singapore. […]
Duplicate assays were conducted in 2 ml glass vials (La Pha Pack® PN 11-14-0544) in 1 ml of filtered seawater for 22 to 24 hours. […] After 22 to 24 hours of incubation at 25-27° C. solutions containing test animals were transferred to a Bogorov tray and scored as living or dead. Moribund larvae were scored as dead. […]

## CCCCCCC(CCCC)C(=O)N1CCCCC1 (stereo not shown) [Compound 12.8]
  LD50: less than 10 μg/ml
